PubChem BioAssay AID504784, Drosophila RNAi Screening Center, 2011

- Test: 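Genome-wide knock-down for genes giving too much or too little stored lipid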 (primary screen)
- Cell system: Drosophila Kc167 embryonic cells
- Knock-down reagent: long dsRNA against Drosophila genes, about 250 ng dsRNA per well
- Time to read-out: 4 days
- Challenge: cells fed 400 µM oleic acid bound to BSA
- Measured: 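Microscope images give a droplet-to-nucleus area ratio, taken as log and converted to a screen-wide B-score; higher values mean greater lipid storage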
- Reading the numbers: droplet/nuclear area B-score: higher = more stored lipid (overstorage)
The screen tested about 17,000 reagents; shown is an unselected part of those that have a named target and a result. 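Each column is one replicate's B-score; the combined score over replicates was not deposited, so single values may mislead.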 Reagents against one gene are numbered here. Names joined by + are all predicted targets of the reagent. No sequences are given here.

The first 2 entries, to show the layout:
gene | reagent no. | droplet/nuclear area B-score, replicate 1 | droplet/nuclear area B-score, replicate 2 | droplet/nuclear area B-score, replicate 3
wun2 (GeneID 53558) | 1 | -0.058 | 1.57 | –
Eig71Ee (GeneID 39706) | 1 | -1.3 | 0.00918 | –

Main list, repeating the preview:
gene | reagent no. | droplet/nuclear area B-score, replicate 1 | droplet/nuclear area B-score, replicate 2 | droplet/nuclear area B-score, replicate 3
wun2 (GeneID 53558) | 1 | -0.058 | 1.57 | –
Eig71Ee (GeneID 39706) | 1 | -1.3 | 0.00918 | –
CG31688 + CG31687 | 1 | -1.32 | 6.2 | –
TMEM216 + CG11760 | 1 | 11 | 0.553 | –
CG12096 (GeneID 32269) | 1 | 0.00121 | 0.0138 | –
Cyp312a1 (GeneID 40005) | 1 | 0.0222 | -0.0398 | –
Acsx1R (GeneID 42352) | 1 | 0.436 | 0.421 | –
CG33263 (GeneID 2768952) | 1 | -0.579 | 0.0549 | –
CG1662 (GeneID 32296) | 1 | 4.26 | 1.21 | 1.63
CG42272 (GeneID 318020) | 1 | 1.12 | 0.84 | –
CG42272 (GeneID 318020) | 2 | 0.23 | -0.366 | –
CG18418 (GeneID 38572) | 1 | -0.931 | 0.578 | –
Hira (GeneID 31680) | 1 | 0.464 | 1.61 | –
Np (GeneID 35904) | 1 | -2.3 | -0.436 | –
Np (GeneID 35904) | 2 | -2.4 | -0.506 | –
Np (GeneID 35904) | 3 | -6.14 | -1.34 | –
CG18135 (GeneID 40073) | 1 | -2.87 | -0.783 | 0.0719
COX5B (GeneID 33918) | 1 | -0.677 | -2.01 | –
CG15125 (GeneID 37258) | 1 | -0.0954 | -2.4 | –
grim (GeneID 40014) | 1 | 0.244 | 2.28 | –
grim (GeneID 40014) | 2 | 0.548 | -0.674 | –
gry (GeneID 38391) | 1 | -0.0419 | -0.367 | –
gry (GeneID 38391) | 2 | 0.255 | – | –
Ank2 (GeneID 38863) | 1 | 0.874 | 2.9 | –
Ank2 (GeneID 38863) | 2 | -0.734 | 0.577 | –
Ank2 (GeneID 38863) | 3 | 0.999 | 1.77 | –
Ank2 (GeneID 38863) | 4 | -1.17 | 0.493 | –
Ank2 (GeneID 38863) | 5 | 0.881 | 0.968 | –
CG8569 (GeneID 36376) | 1 | 0.684 | -0.0294 | –
nur (GeneID 318957) | 1 | 1.03 | -1.06 | –
CG5554 (GeneID 37775) | 1 | -0.529 | 0.941 | –
laza (GeneID 40468) | 1 | 0.186 | -1.25 | 0.0913
laza (GeneID 40468) | 2 | 1.04 | 1.2 | –
ImpE3 (GeneID 48239) | 1 | -0.281 | 0.643 | –
pes (GeneID 34087) | 1 | 0.298 | -0.723 | –
Ssdp (GeneID 42177) | 1 | -1.1 | 0.00211 | –
CG1943 (GeneID 40844) | 1 | -0.882 | 0.153 | –
path (GeneID 39106) | 1 | 1.16 | 2.43 | –
CG30340 (GeneID 246550) | 1 | -1.12 | -0.752 | –
Arl8 (GeneID 40961) | 1 | 1.1 | -1.54 | –
Seipin (GeneID 31245) | 1 | 0.506 | 1.15 | –
l(3)80Fg (GeneID 3354941) | 1 | 1.65 | -0.211 | –
l(3)80Fg (GeneID 3354941) | 2 | -0.284 | -0.966 | –
alpha4GT2 (GeneID 43124) | 1 | 0.861 | 2.07 | –
Charon (GeneID 33303) | 1 | -0.439 | -0.763 | –
SP1029 (GeneID 53473) | 1 | -1.75 | 1.53 | –
CG13561 (GeneID 37765) | 1 | -0.419 | -1.62 | –
CG15571 (GeneID 31365) | 1 | 0.661 | 1.51 | –
CG17298 (GeneID 42529) | 1 | -2.48 | 0.573 | –
Eig71Eh (GeneID 39709) | 1 | -0.58 | -0.28 | –
CG4768 (GeneID 32666) | 1 | 0.195 | -1.2 | -1.71
Dhod (GeneID 41022) | 1 | 1.75 | -0.0166 | –
CG8001 (GeneID 38224) | 1 | 1.09 | -0.13 | –
CG30395 (GeneID 246589) | 1 | -0.00608 | -0.643 | –
CG7997 (GeneID 36829) | 1 | 2.09 | -0.275 | –
CG18302 (GeneID 34452) | 1 | -2.39 | -0.142 | –
